Data from PubChem BioAssay AID686949 (The Scripps Research Institute Molecular Screening Center, 2013).
The entries are a selection whose mix differs from that of the whole data set. The source made the active and inactive calls.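 How the source made its calls: active means activation, as change over the incubation, above the mean of all tested compounds plus 3 SD (cut at about 13% in these data); inactive means the rest.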

Amino acid sequences for entries named in this document (tags omitted). A change or cut given only in a name is not applied to a line headed by its entry.
UniProt P49862: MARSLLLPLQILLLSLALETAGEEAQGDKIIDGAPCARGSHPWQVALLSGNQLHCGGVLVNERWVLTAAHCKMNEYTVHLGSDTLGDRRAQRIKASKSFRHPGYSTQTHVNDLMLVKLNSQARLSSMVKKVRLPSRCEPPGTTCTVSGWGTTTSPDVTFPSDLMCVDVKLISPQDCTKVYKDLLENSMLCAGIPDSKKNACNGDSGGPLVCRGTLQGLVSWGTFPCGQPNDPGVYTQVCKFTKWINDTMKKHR

These molecules were tested against Kallikrein-7 (Homo sapiens) (UniProt P49862) (assay: proKLK7 zymogen activators, confirmation, biochemical, fluorescence intensity, triplicate (AID 686949)). Conditions: purified proKLK7, EDANS-DABCYL substrate fluorescence; at 7 µM; active compounds read high; scaled: vehicle 0, mature enzyme 100.
For `Oc1ccc2ccccc2c1CNc1cnc2ccccc2c1`, the activation was active: 62.3%. In the case of `COC(=O)COc1ccc2cc(-c3ccc(OC)cc3)c(=O)oc2c1`, the activation is reported as active: 70.9%.
